The target of one experiment is 5×Flag-Pelota (UniProt Q9BRX2). Put plainly: co-IP; HeLa lysates in buffer B (100 mM NaCl, 1 mM EDTA, 0.5% Nonidet P-40, 0.25% sodium deoxycholate, 5 μg/mL RNase A, pH 7.5); anti-Flag M2 agarose, 10 °C, 1 h; western blotting. (In general: In western blotting, separated proteins are transferred to a membrane and probed.)
The target of experiment [1] is T1, RNase L, two differently tagged copies co-expressed (5×Flag-RNase L and 5×Myc-RNase L), Q05823.
T1 chain: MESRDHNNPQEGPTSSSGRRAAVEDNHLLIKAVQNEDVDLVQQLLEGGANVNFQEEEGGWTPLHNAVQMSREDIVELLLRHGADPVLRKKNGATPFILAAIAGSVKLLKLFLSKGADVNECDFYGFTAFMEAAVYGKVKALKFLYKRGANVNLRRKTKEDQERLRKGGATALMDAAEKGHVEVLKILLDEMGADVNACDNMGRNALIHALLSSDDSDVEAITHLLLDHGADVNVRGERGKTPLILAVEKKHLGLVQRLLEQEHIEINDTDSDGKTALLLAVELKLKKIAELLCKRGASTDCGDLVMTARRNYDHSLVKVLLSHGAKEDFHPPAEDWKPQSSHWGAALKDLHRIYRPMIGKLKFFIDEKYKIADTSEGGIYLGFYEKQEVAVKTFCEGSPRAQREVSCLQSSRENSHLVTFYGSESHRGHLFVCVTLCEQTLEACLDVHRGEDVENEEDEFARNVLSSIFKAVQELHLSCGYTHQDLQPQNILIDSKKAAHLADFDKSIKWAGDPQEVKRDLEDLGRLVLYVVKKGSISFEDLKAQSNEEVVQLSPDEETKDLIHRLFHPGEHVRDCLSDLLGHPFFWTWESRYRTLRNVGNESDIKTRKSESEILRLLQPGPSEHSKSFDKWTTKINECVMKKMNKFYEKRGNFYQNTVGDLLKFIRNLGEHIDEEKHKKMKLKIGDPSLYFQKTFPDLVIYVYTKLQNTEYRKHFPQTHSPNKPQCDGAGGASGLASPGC
Put plainly: co-IP; HeLa lysates in buffer A; anti-Flag M2 agarose; in the presence of 2-5A (0.2 μM); with or without overexpressed ABCE1. As to conditions: remark: other sources report otherwise.

By UniProt entry, the sequences of proteins in these tests, tags left out.
UniProt Q9BRX2: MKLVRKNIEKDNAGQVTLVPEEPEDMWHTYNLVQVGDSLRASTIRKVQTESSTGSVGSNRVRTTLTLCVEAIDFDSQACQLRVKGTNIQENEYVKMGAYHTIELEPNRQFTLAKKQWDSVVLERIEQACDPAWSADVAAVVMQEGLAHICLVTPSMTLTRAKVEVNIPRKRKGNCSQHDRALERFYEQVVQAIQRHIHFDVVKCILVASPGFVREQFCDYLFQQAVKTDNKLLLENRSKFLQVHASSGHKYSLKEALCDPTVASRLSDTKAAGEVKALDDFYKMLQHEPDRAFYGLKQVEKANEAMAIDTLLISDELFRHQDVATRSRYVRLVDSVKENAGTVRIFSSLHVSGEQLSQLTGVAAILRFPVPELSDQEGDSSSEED

Experiment [2] has as its target T1, RNase L, two differently tagged copies …. Description: co-IP; HeLa lysates in buffer A (100 mM NaCl, 1 mM MgCl2, 0.5% Nonidet P-40, pH 7.5); anti-Flag M2 agarose; without 2-5A; with or without overexpressed ABCE1. Conditions: remark: other sources report otherwise.

These are yes or no findings as the source states them, for the method shown. Binding seen in cells or lysates may run through a third protein. Some binding calls cover weakened binding; strength is not graded here. For part of these data: Where a sequence is shown, tags or fusion partners need not be part of it.

B1: endogenous RNase L (protein, UniProt Q05823 1-741)
chain: MESRDHNNPQEGPTSSSGRRAAVEDNHLLIKAVQNEDVDLVQQLLEGGANVNFQEEEGGWTPLHNAVQMSREDIVELLLRHGADPVLRKKNGATPFILAAIAGSVKLLKLFLSKGADVNECDFYGFTAFMEAAVYGKVKALKFLYKRGANVNLRRKTKEDQERLRKGGATALMDAAEKGHVEVLKILLDEMGADVNACDNMGRNALIHALLSSDDSDVEAITHLLLDHGADVNVRGERGKTPLILAVEKKHLGLVQRLLEQEHIEINDTDSDGKTALLLAVELKLKKIAELLCKRGASTDCGDLVMTARRNYDHSLVKVLLSHGAKEDFHPPAEDWKPQSSHWGAALKDLHRIYRPMIGKLKFFIDEKYKIADTSEGGIYLGFYEKQEVAVKTFCEGSPRAQREVSCLQSSRENSHLVTFYGSESHRGHLFVCVTLCEQTLEACLDVHRGEDVENEEDEFARNVLSSIFKAVQELHLSCGYTHQDLQPQNILIDSKKAAHLADFDKSIKWAGDPQEVKRDLEDLGRLVLYVVKKGSISFEDLKAQSNEEVVQLSPDEETKDLIHRLFHPGEHVRDCLSDLLGHPFFWTWESRYRTLRNVGNESDIKTRKSESEILRLLQPGPSEHSKSFDKWTTKINECVMKKMNKFYEKRGNFYQNTVGDLLKFIRNLGEHIDEEKHKKMKLKIGDPSLYFQKTFPDLVIYVYTKLQNTEYRKHFPQTHSPNKPQCDGAGGASGLASPGC
Take B1: in the experiment with 5×Flag-Pelota, the binding result is on record as “binds”.

B2: RNase L, two differently tagged copies co-expressed (5×Flag-RNase L and 5×Myc-RNase L), Q05823 1-741 (protein)
chain: MESRDHNNPQEGPTSSSGRRAAVEDNHLLIKAVQNEDVDLVQQLLEGGANVNFQEEEGGWTPLHNAVQMSREDIVELLLRHGADPVLRKKNGATPFILAAIAGSVKLLKLFLSKGADVNECDFYGFTAFMEAAVYGKVKALKFLYKRGANVNLRRKTKEDQERLRKGGATALMDAAEKGHVEVLKILLDEMGADVNACDNMGRNALIHALLSSDDSDVEAITHLLLDHGADVNVRGERGKTPLILAVEKKHLGLVQRLLEQEHIEINDTDSDGKTALLLAVELKLKKIAELLCKRGASTDCGDLVMTARRNYDHSLVKVLLSHGAKEDFHPPAEDWKPQSSHWGAALKDLHRIYRPMIGKLKFFIDEKYKIADTSEGGIYLGFYEKQEVAVKTFCEGSPRAQREVSCLQSSRENSHLVTFYGSESHRGHLFVCVTLCEQTLEACLDVHRGEDVENEEDEFARNVLSSIFKAVQELHLSCGYTHQDLQPQNILIDSKKAAHLADFDKSIKWAGDPQEVKRDLEDLGRLVLYVVKKGSISFEDLKAQSNEEVVQLSPDEETKDLIHRLFHPGEHVRDCLSDLLGHPFFWTWESRYRTLRNVGNESDIKTRKSESEILRLLQPGPSEHSKSFDKWTTKINECVMKKMNKFYEKRGNFYQNTVGDLLKFIRNLGEHIDEEKHKKMKLKIGDPSLYFQKTFPDLVIYVYTKLQNTEYRKHFPQTHSPNKPQCDGAGGASGLASPGC
Take B2: the binding result in experiment [1] and in experiment [2] was “binds” each time.

(Values after article PMC7077301.)
